In PMC4859692:
Results are given in words; binding and its absence hold for the method and conditions named. Binding seen in cells or lysates may run through a third protein. Some entries that bind do so weakly or less than the wild type. Where a sequence is shown, tags or fusion partners need not be part of it.

Target: T1, Ino1-RFP (Dictyostelium inositol-3-phosphate synthase with a C-terminal RFP tag) (Dictyostelium discoideum) (UniProt Q54N49)
T1 sequence: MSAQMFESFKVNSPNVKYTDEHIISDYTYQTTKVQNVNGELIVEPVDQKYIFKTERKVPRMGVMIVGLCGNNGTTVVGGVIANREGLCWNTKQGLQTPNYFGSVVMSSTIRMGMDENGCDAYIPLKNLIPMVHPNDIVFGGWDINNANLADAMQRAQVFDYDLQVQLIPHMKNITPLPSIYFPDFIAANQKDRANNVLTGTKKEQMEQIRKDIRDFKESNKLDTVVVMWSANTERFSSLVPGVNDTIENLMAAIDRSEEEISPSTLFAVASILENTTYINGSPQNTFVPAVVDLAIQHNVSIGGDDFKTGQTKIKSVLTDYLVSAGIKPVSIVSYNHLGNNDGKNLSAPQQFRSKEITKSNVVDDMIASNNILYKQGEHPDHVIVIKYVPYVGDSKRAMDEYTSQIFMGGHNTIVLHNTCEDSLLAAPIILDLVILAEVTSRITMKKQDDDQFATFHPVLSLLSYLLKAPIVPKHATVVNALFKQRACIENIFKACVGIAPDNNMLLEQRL
Assay: co-IP; ino1- cells coexpressing Ino1-RFP and a FLAG-tagged protein; lysate on anti-RFP-coated (RFP-Trap) beads, 1 h at 4°C; Western blot with anti-RFP and anti-FLAG M2

binding: binds weakly
B1: FLAG-tagged GpmA (enzyme, UniProt Q54NE6 1-249)
chain: MVYKLVLIRHGESTWNKENKFTGWTDVDLSEKGVQEAHEAGKRLLKAGFTFDIAYTSVLKRAIRTLWILLEELNLYWIPVSRQWRLNERMYGSLQGLNKSETAAKYGEDQVLIWRRSYDIPPPALEESDERYPGNDPRYAKLDKSDLPKTECLKDTVERFLPLWNDTIAPTIKSGQKVLIAAHGNSIRALVKYLDNIADDKIVSMDIPTGIPLVYELDENLKPIKHYYLADESELNAAIQAVANQGKAK
